From patent US6375946B1, “Enhanced activation of natural killer cells using an NK cell activator and a hydrogen peroxide scavenger or inhibitor” (Maxim Pharmaceuticals, Inc., priority 1994, dated 2002)
For at least one compound, name, drawing or mass did not settle the structure.

System: monocytes
Assay: Luminol-enhanced chemiluminescence (respiratory burst) of elutriated monocytes
Type: cell-based, human
Conditions: simultaneous treatment with histamine 10^−5 M
Method: Formylmethionyl-leucyl-phenylalanine was dissolved to 10^−2 M in dimethyl sulfoxide and subsequently diluted in Krebs-Ringer phosphate buffer supplemented with glucose (10 mM), Ca^2+ (1 mM), and Mg^2+ (1.5 mM).
In a second set of experiments, effects of histamine and H2R-interactive compounds on the respiratory burst activity, as measured by the luminol-enhanced CL response of enriched, elutriated monocytes, were studied. Monocytes were treated with culture medium (control), histamine (10^−5 M), sodium azide (10^−5 M), or histamine and sodium azide as described below. Emission of CL was recorded after addition of fMLP at time=0.
To assess whether histamine acted by inhibiting the generation of H2O2 or by reducing the availability of peroxidase, we next studied the effects of histamine in monocytes treated with sodium azide to inhibit endogenous myeloperoxidase (MPO) and with exogenous, azide-insensitive peroxidase (HRP) in excess.
To exclude non-specific effects of ranitidine, we used a ranitidine analog (AH20239AA; […]; Glaxo) in which the thioether of ranitidine is replaced by an ether, thereby strongly reducing its H2R antagonist properties. In these experiments, monocytes were treated with histamine (10^−5 M) together with ranitidine or AH20239AA at final concentrations indicated in FIG. 7. […] Peak CL recorded in untreated monocytes (control) was 2.5×10^7 cpm.

For CNC(=C[N+](=O)[O-])NCCSCc1ccc(CN(C)C)o1 [ranitidine], the “antagonism of the effects of histamine on respiratory burst” value was “entirely blocked”.
